Results reported in publication PMC5686942.
No constants are given. Whether binding was seen depends on the method and setting. In cells and extracts the contact can be indirect. Some entries that bind do so weakly or less than the wild type.

Protein sequences, listed by entry. Tags and fused reporters are not part of them.
UniProt Q01860: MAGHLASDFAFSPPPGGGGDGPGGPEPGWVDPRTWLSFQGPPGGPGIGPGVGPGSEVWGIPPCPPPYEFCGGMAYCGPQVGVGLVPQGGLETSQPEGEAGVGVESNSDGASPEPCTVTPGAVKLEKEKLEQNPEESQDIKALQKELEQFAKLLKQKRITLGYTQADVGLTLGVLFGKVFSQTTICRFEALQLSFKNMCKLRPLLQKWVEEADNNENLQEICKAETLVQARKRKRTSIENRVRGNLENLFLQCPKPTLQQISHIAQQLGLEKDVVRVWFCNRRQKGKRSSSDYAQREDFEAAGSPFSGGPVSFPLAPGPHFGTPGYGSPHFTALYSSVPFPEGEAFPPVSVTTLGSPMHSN

Biological target: OCT4 (human (endogenous in 786-O / A-498 RCC cells)) (UniProt Q01860)
Assay: co-IP; immunoprecipitation with OCT4, CBFA2T2 detected; CSCs population of RCC cells; called pull-down assay in the legend; no methods given

B1: CBFA2T2 (protein, UniProt O43439 1-604)
chain: MAKESGISLKEIQVLARQWKVGPEKRVPAMPGSPVEVKIQSRSSPPTMPPLPPINPGGPRPVSFTPTALSNGINHSPPTLNGAPSPPQRFSNGPASSTSSALTNQQLPATCGARQLSKLKRFLTTLQQFGNDISPEIGEKVRTLVLALVNSTVTIEEFHCKLQEATNFPLRPFVIPFLKANLPLLQRELLHCARAAKQTPSQYLAQHEHLLLNTSIASPADSSELLMEVHGNGKRPSPERREENSFDRDTIAPEPPAKRVCTISPAPRHSPALTVPLMNPGGQFHPTPPPLQHYTLEDIATSHLYREPNKMLEHREVRDRHHSLGLNGGYQDELVDHRLTEREWADEWKHLDHALNCIMEMVEKTRRSMAVLRRCQESDREELNYWKRRYNENTELRKTGTELVSRQHSPGSADSLSNDSQREFNSRPGTGYVPVEFWKKTEEAVNKVKIQAMSEVQKAVAEAEQKAFEVIATERARMEQTIADVKRQAAEDAFLVINEQEESTENCWNCGRKASETCSGCNIARYCGSFCQHKDWERHHRLCGQNLHGQSPHGQGRPLLPVGRGSSARSADCSVPSPALDKTSATTSRSSTPASVTAIDTNGL
With B1 the binding was “binds”.
